# Experimental data as given in PubChem BioAssay AID1347075 (National Center for Advancing Translational Sciences (NCATS), 2019).
# Hit rate of the full screen: of about 400,000 compounds, about 5,500 (1.4%) were called active. The inconclusive results got no clear call from the source; some entries with a clear call stand among them for comparison. The call rests on the fitted dose curve; in most records, active means well fitted cell-killing curve with a large enough effect; inconclusive means small, poorly fitted or top-dose-only effect, or effect the other way; inactive means flat fitted curve, though single readings scatter. Potencies beside an inconclusive call are fits to weak or partial responses and may not hold up.
# Assay: qHTS assay for MDR1-selective chemotherapeutics: Primary screen using the parental adenocarcinoma cell KB-3-1; further: nearly all actives have a fitted effect of over 60% in size
# Conditions: KB-3-1 viability, CellTiter-Glo ATP luminescence, 72 h; activity change, negative = cytotoxic: at 46.1 µM (top of the series)
# Summary of the method: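 Parental KB-3-1 adenocarcinoma cells in phenol-red-free DMEM with 10% FBS were pin-treated with compounds at several concentrations, incubated 72 h at 37 °C, and viability read by CellTiter-Glo luminescence; concentration-effect curves were fitted after normalization.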
# On the % scale 0 is the no-effect control and ±100 the full control effect; potency means the concentration at half of the fitted maximal effect.
SMILES,Potency,"activity change, negative = cytotoxic"
O=S1(=O)CC(N2CCN(CC3CC3)CC2)CN1C1CCCCC1 (centres undefined),inactive,
COC(=O)c1sc2ccccc2c1-n1cccc1C(=O)C(=O)Nc1ccc(Cl)cc1,"inconclusive: 16.4 µM [cytotoxic, partial curve, poor fit]",
Cc1c(C(=O)O)nn(-c2ccccc2)c(=O)c1C#N,inactive,
COc1cc2c(cc1OC)C(c1cc3cc4c(cc3[nH]c1=O)OCO4)N(C(=O)C(C)C)CC2 (centres undefined),inactive,
Cc1ccc(NC(=S)NNC(=S)Nc2ccc(C)cc2C)cc1,active: 1.03 µM,
O=c1c2ccc([N+](=O)[O-])cc2ncn1CCOc1ccccc1,"inconclusive: 9.2 µM [rising, partial curve, poor fit]",
Cc1ccc(S(=O)(=O)N=S(CC2CC2(Cl)Cl)CC2CC2(Cl)Cl)cc1 (centres undefined),"inconclusive: 4.61 µM [cytotoxic, partial curve, poor fit]",
COc1cccc(C(=O)Nc2cc(S(=O)(=O)N3CCOCC3)ccc2N2CCOCC2)c1,inactive,
O=c1cc(N2CCCCC2)c(-c2ccccc2)nn1Cc1ccc(Cl)cc1,"inconclusive: 25.9 µM [cytotoxic, single point]",
CCc1nn(C(C)C(=O)N2CCN(c3ccc(OC)cc3)CC2)c(=O)c2cc3occc3n12 (centres undefined),active: 9.2 µM,
Cc1cc(C)cc(N2C(=O)CSC23C(=O)N(CC(N)=O)c2ccccc23)c1 (centres undefined),inactive,
CNC(=S)N1N=C(c2ccc(C)cc2)CC1c1ccc(OC)cc1 (centres undefined),"inconclusive: 32.6 µM [cytotoxic, single point]",
O=C(Cn1cc(/C=C\[N+](=O)[O-])c2ccccc21)Nc1ccccc1,"inconclusive: 16.4 µM [cytotoxic, single point]",
C[C@H]1CN([C@@H](C)CO)C(=O)c2cccc(NC(=O)c3nc4ccccc4s3)c2O[C@H]1CN(C)C(=O)Nc1ccc(F)cc1,"inconclusive: 29.1 µM [cytotoxic, single point]",
Cc1[nH]nc2nc(SCC(=O)NCCC3=CCCCC3)n(-c3ccc(Br)cc3)c(=N)c12,"inconclusive: 29.1 µM [cytotoxic, single point]",
CN(C)c1ccc(-c2nc3ccc(Cl)cn3c2Nc2ccc3c(c2)OCCO3)cc1,inactive,
COCCN(Cc1ccc(C)c(Br)c1)S(=O)(=O)c1ccc2[nH]c(=O)ccc2c1,inactive,
COc1ccc(NC(=O)CN(c2ccc(C)cc2)S(=O)(=O)c2c(C)nn(C)c2C)cc1OC,"inconclusive: 29.1 µM [cytotoxic, single point]",
CN(C)c1ccc(-c2cc(NC=O)c3ncc(-c4ccc(F)c(Cl)c4)n3c2)cc1,"inconclusive: 29.1 µM [cytotoxic, partial curve, poor fit]",
O=C(COc1ccc(Br)cc1CO)Nc1ccccc1F,"inconclusive: 20.6 µM [cytotoxic, single point]",
CCCN1CNc2c(c(=O)[nH]c(=S)n2-c2ccc(Cl)cc2)C1,"inconclusive: 10.3 µM [rising, partial curve]",
c1ccc2c(c1)OCC(CNc1ncnc3sccc13)O2 (centres undefined),active: 1.64 µM,
COc1ccc(-c2cc(C(F)(F)F)nc(S(=O)(=O)CCCC(=O)Nc3cc(C)on3)n2)cc1OC,inactive,

SMILES,Potency,"activity change, negative = cytotoxic"
CCc1nc2ccc(C(=O)N3CCN(c4ccccc4)CC3)cn2c1N(C)CCC(C)C,"inconclusive: 29.1 µM [cytotoxic, single point]",
CCOC(=O)c1cnc(-n2nc(C)cc2C)nc1NC(C)c1ccccc1 (centres undefined),"inconclusive: 20.6 µM [cytotoxic, single point]",
CN1CCN(S(=O)(=O)c2ccc(N3CCN(C(c4ccccc4)c4ccccc4)CC3)nc2)CC1,"inconclusive: 29.1 µM [cytotoxic, single point]",
O=C(c1cc(COc2cccc3cnccc23)on1)N1CCC(c2ccccc2Cl)C1 (centres undefined),inactive,
C=CCn1c(SCC(=O)N2CCN(c3ccc(F)cc3)CC2)nnc1-c1ccco1,"inconclusive: 14.6 µM [cytotoxic, partial curve]",
Cc1ccc(CSCC(=O)Nc2ccccc2C(=O)O)cc1,"inconclusive: 9.2 µM [cytotoxic, partial curve]",
O=C(NNC(=O)c1ccccc1O)c1ccc(Cl)cc1,"inconclusive: 20.6 µM [cytotoxic, partial curve, poor fit]",
C/C(=N\NC(=O)C1COc2ccccc2O1)c1ccc(Cl)s1 (centres undefined),inactive,
COc1ccc(C(=O)c2ccc(Br)cc2)c2ccccc12,"inconclusive: 18.4 µM [cytotoxic, single point]",
Cc1ccc(S(=O)(=O)N(Cc2ccc(F)cc2)C(=O)N2CCN(C)CC2)cc1,"inconclusive: 4.61 µM [rising, partial curve]",
O=C(Nc1ncc(Cc2ccc(SC(F)F)cc2)s1)c1ccc(OC(F)F)cc1,active: 0.206 µM,
O=C(CSc1nc2ccccc2[nH]1)N1CCN(S(=O)(=O)c2ccc(Cl)cc2)CC1,inactive,
CCCC(=O)N1CCN(c2ccc([N+](=O)[O-])cc2Cl)CC1,inactive,
Cc1cc2cc(CN(Cc3ccco3)S(=O)(=O)c3c(C)ccc4nsnc34)c(=O)[nH]c2cc1C,active: 3.26 µM,
Clc1ccc(-c2ccc(/C=N/Nc3cc(N4CCOCC4)nc(N4CCOCC4)n3)o2)cc1,"inconclusive: 29.1 µM [cytotoxic, single point]",
CSc1nc2ccccc2cc1/C=C(\C#N)c1ccccc1,"inconclusive: 16.4 µM [cytotoxic, single point]",
COc1cc(C(=O)NCCSc2c(-c3ccccc3)[nH]c3ccccc23)cc(OC)c1OC,"inconclusive: 13 µM [cytotoxic, partial curve]",
O=C(CN(C(=O)CCC(=O)Nc1ccccn1)c1ccccc1F)NCc1ccc2c(c1)OCO2,"inconclusive: 29.1 µM [cytotoxic, single point]",
CC(Cc1n[nH]c(=S)n1N)c1ccccc1 (centres undefined),inactive,
Cc1ccc(-c2cc(C(=O)N(C)Cc3cnn(C)c3C)c3cc(Br)ccc3n2)cc1,"inconclusive: 20.6 µM [cytotoxic, single point]",
COc1cc(OC)cc(C(=O)N2CCN(Cc3ccc4c(c3)OCO4)CC2)c1,inactive,
CCOC(=O)c1ccccc1NC(=O)CSc1ncc2c(n1)-c1ccccc1N(CC)S2(=O)=O,inactive,
COc1ccc(S(=O)(=O)N2CCCCCC2)cc1C(=O)N(C)Cc1ccc(Cl)cc1Cl,"inconclusive: 29.1 µM [cytotoxic, single point]",

SMILES,Potency,"activity change, negative = cytotoxic"
COc1ccc(C(=O)NC(C)c2ccncc2)cc1S(=O)(=O)N(C)Cc1ccccc1 (centres undefined),"inconclusive: 13 µM [rising, partial curve, poor fit]",
Cc1ccc(NC(=O)Cn2c(=O)nc(-c3ccccc3F)c3cc(Cl)ccc32)c(Br)c1,active: 16.4 µM,
CCCOc1ccc(C(=O)NNC(=S)NC(=O)CC)cc1,active: 13 µM,
CCO[C@H]1OC(C(=O)NCc2nc3ccccc3[nH]2)=C[C@@H](C2CC2)[C@@H]1CCCO,inactive,
O=C(O)c1cn(-c2ccc(F)c(F)c2)c2c(F)c(F)c(F)c(F)c2c1=O,"inconclusive: 29.1 µM [cytotoxic, single point]",
Cc1c(C(=O)N/N=C/c2c(O)ccc3ccccc23)nnn1-c1nonc1N,"inconclusive: 2.91 µM [cytotoxic, full curve]",
O=C(c1ccc(NS(=O)(=O)c2ccc3c(c2)OCCO3)cc1)N1CCCCC1,"inconclusive: 25.9 µM [cytotoxic, single point]",
c1ccc(CCNc2ccnc3cc4ccccc4cc23)cc1,active: 18.4 µM,
COc1ccc(C2c3ccc4ccccc4c3Oc3ncn(CCN(C)C)c(=N)c32)cc1 (centres undefined),"inconclusive: 29.1 µM [cytotoxic, single point]",
CCc1ccccc1NC(=O)N1CCc2ccccc2C1,inactive,
C[C@@H]1CC2OC(=O)[C@@]3(C)C(=O)CC[C@@](C)(C23)[C@@]1(O)CCc1ccoc1 (some centres undefined),inactive,
CC(C)C[C@H]1CNC(=O)C(=O)N1C[C@H]1CCCN1C[C@H](CC(C)C)N1C[C@H](CC(C)C)N(CCc2ccccc2)C(=O)C1=O,"inconclusive: 29.1 µM [cytotoxic, single point]",
CCCCCNCC(=O)Nc1cccc(C(=O)Nc2cccc(C(F)(F)F)c2)c1,"inconclusive: 29.1 µM [cytotoxic, single point]",
O=C(Nc1cc(S(=O)(=O)Nc2ccc(Cl)cc2)ccc1N1CCCCC1)c1ccc(F)cc1Cl,active: 16.4 µM,
COc1ccccc1NC(=S)NC(NC(=O)c1ccco1)C(Cl)(Cl)Cl (centres undefined),"inconclusive: 32.6 µM [rising, single point]",
O=C(Nc1ccc(S(=O)(=O)Nc2ncccn2)cc1)c1cnc(Cl)c(Cl)c1,"inconclusive: 3.66 µM [rising, full curve, poor fit]",
CCn1c(N)c(C(=O)NCCOC)sc1=S,inactive,
O=C(NCC1CCCCC1)c1cc2ccccc2cc1O,"inconclusive: 29.1 µM [cytotoxic, single point]",
COC(=O)C(C)N1C(=O)S/C(=C/c2cc(C)n(C(C)C)c2C)C1=O (centres undefined),"inconclusive: 20.6 µM [cytotoxic, single point]",
CCOc1ccccc1Nc1sc(C(=O)c2ccc(Cl)cc2)c(N)c1C#N,"inconclusive: 29.1 µM [rising, single point]",
Nc1nonc1-n1nnc(C(=O)N/N=C/c2cc(Br)cs2)c1-c1ccccc1,inactive,
COc1ccc(/C=C/C(=O)N2CCN(S(=O)(=O)c3ccccc3Br)CC2)cc1OC,,inconclusive: -6.44%
Cc1ccc(NC(=O)CCl)c(C)c1,active: 16.4 µM,

# No new results follow: an excerpt of the list.
SMILES,Potency,"activity change, negative = cytotoxic"
CN(C)c1ccc(-c2cc(NC=O)c3ncc(-c4ccc(F)c(Cl)c4)n3c2)cc1,"inconclusive: 29.1 µM [cytotoxic, partial curve, poor fit]",
O=C(COc1ccc(Br)cc1CO)Nc1ccccc1F,"inconclusive: 20.6 µM [cytotoxic, single point]",
CCCN1CNc2c(c(=O)[nH]c(=S)n2-c2ccc(Cl)cc2)C1,"inconclusive: 10.3 µM [rising, partial curve]",
c1ccc2c(c1)OCC(CNc1ncnc3sccc13)O2 (centres undefined),active: 1.64 µM,
COc1ccc(-c2cc(C(F)(F)F)nc(S(=O)(=O)CCCC(=O)Nc3cc(C)on3)n2)cc1OC,inactive,
